± gives the standard deviation of the averaged measurements. Values are relative to the signal before dosing, not to a vehicle control; the signal also falls without drug.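 Fibroblast labels name human fibroblasts: mostly primary ones from tissues such as uterus (C12385, HUF), lung (H6013), bone (Hs27A), adrenal (HADF) and skin (WS1), plus mammary HMF and breast cancer-associated Hs343T. The cancer cells are basal-like or mesenchymal-like triple-negative breast cancer lines. The paper calls a changed response a hit when it shifts by more than 3x the replicate standard deviation. The tissue of the other fibroblasts is not given here.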
Tested on: HCC1143
Test: relative JC-1 red fluorescence (viability) vs pre-drug, coculture with fibroblast (fraction); higher = more viable cancer cells
Description: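 JC-1 labelled TNBC cells cocultured 1:1 (1,500 cells each) with CellTrace Violet stained primary or stromal fibroblasts in 384-well plates in FluoroBrite medium, treated with one of 42 anticancer drugs at 0.1, 1, 10 or 100 uM. JC-1 red fluorescence (mitochondrial integrity in cancer cells only) was read by plate reader every 8 h for 72 h. Values are normalised to each well's pre-drug value. The stock of one drug was tenfold lower, so its dose labels may be too high.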

N.N.[Cl][Pt][Cl] [Cisplatin]
relative JC-1 red fluorescence
Conditions | 8 h | 16 h | 24 h | 32 h | 40 h | 48 h | 56 h | 64 h | 72 h
10 µM, coculture fibroblast: C12385 | 0.847 ± 0.019 | 0.763 ± 0.009 | 0.7038 ± 0.0069 | 0.652 ± 0.0079 | 0.606 ± 0.025 | 0.581 ± 0.026 | 0.561 ± 0.04 | 0.526 ± 0.047 | 0.52 ± 0.054
10 µM, coculture fibroblast: H6013 | 0.744 ± 0.0066 | 0.656 ± 0.01 | 0.6155 ± 0.0057 | 0.614 ± 0.016 | 0.55 ± 0.024 | 0.544 ± 0.027 | 0.521 ± 0.029 | 0.508 ± 0.026 | 0.501 ± 0.038
10 µM, coculture fibroblast: H6019 | 0.803 ± 0.0093 | 0.734 ± 0.035 | 0.697 ± 0.03 | 0.645 ± 0.036 | 0.609 ± 0.051 | 0.58 ± 0.056 | 0.545 ± 0.062 | 0.523 ± 0.071 | 0.509 ± 0.077
10 µM, coculture fibroblast: H6076 | 0.8042 ± 0.0064 | 0.779 ± 0.052 | 0.737 ± 0.029 | 0.698 ± 0.00095 | 0.664 ± 0.021 | 0.651 ± 0.017 | 0.63 ± 0.018 | 0.615 ± 0.011 | 0.6285 ± 0.0016
10 µM, coculture fibroblast: H6231 | 0.826 ± 0.043 | 0.828 ± 0.017 | 0.7398 ± 0.0008 | 0.624 ± 0.035 | 0.6498 ± 0.00067 | 0.621 ± 0.014 | 0.578 ± 0.022 | 0.549 ± 0.026 | 0.524 ± 0.025
10 µM, coculture fibroblast: HADF | 0.7125 ± 0.0008 | 0.646 ± 0.0072 | 0.612 ± 0.021 | 0.628 ± 0.028 | 0.534 ± 0.02 | 0.517 ± 0.021 | 0.496 ± 0.017 | 0.482 ± 0.018 | 0.504 ± 0.042
10 µM, coculture fibroblast: HCFa | 0.785 ± 0.021 | 0.705 ± 0.025 | 0.673 ± 0.037 | 0.665 ± 0.062 | 0.587 ± 0.065 | 0.56 ± 0.072 | 0.534 ± 0.08 | 0.516 ± 0.081 | 0.512 ± 0.091
10 µM, coculture fibroblast: HCPF | 0.7897 ± 0.0063 | 0.81 ± 0.034 | 0.767 ± 0.019 | 0.646 ± 0.013 | 0.674 ± 0.02 | 0.646 ± 0.018 | 0.611 ± 0.02 | 0.579 ± 0.026 | 0.567 ± 0.021
10 µM, coculture fibroblast: HHSteC | 0.8189 ± 0.0058 | 0.742 ± 0.011 | 0.707 ± 0.017 | 0.671 ± 0.031 | 0.604 ± 0.045 | 0.572 ± 0.052 | 0.543 ± 0.05 | 0.528 ± 0.047 | 0.504 ± 0.04
10 µM, coculture fibroblast: HMF | 0.7755 ± 0.002 | 0.798 ± 0.0055 | 0.737 ± 0.004 | 0.658 ± 0.05 | 0.667 ± 0.019 | 0.639 ± 0.042 | 0.602 ± 0.058 | 0.582 ± 0.061 | 0.564 ± 0.067
10 µM, coculture fibroblast: HPFa | 0.909 ± 0.013 | 0.81 ± 0.013 | 0.781 ± 0.037 | 0.694 ± 0.04 | 0.65 ± 0.046 | 0.637 ± 0.06 | 0.602 ± 0.049 | 0.588 ± 0.051 | 0.572 ± 0.048
10 µM, coculture fibroblast: HUF | 0.86141 ± 0.00075 | 0.752 ± 0.047 | 0.677 ± 0.097 | 0.598 ± 0.12 | 0.542 ± 0.12 | 0.509 ± 0.14 | 0.469 ± 0.14 | 0.446 ± 0.15 | 0.428 ± 0.15
10 µM, coculture fibroblast: Hs5 | 0.858 ± 0.013 | 0.836 ± 0.046 | 0.81 ± 0.033 | 0.784 ± 0.0089 | 0.723 ± 0.018 | 0.699 ± 0.0077 | 0.6884 ± 0.0012 | 0.672 ± 0.0023 | 0.6822 ± 0.0044
10 µM, coculture fibroblast: Hs27A | 0.717 ± 0.042 | 0.659 ± 0.042 | 0.65 ± 0.067 | 0.702 ± 0.088 | 0.605 ± 0.092 | 0.616 ± 0.09 | 0.602 ± 0.089 | 0.594 ± 0.087 | 0.619 ± 0.1
10 µM, coculture fibroblast: Hs343T | 0.8017 ± 0.004 | 0.81 ± 0.046 | 0.741 ± 0.053 | 0.657 ± 0.037 | 0.654 ± 0.033 | 0.622 ± 0.036 | 0.587 ± 0.038 | 0.567 ± 0.031 | 0.542 ± 0.043
10 µM, coculture fibroblast: WS1 | 0.805 ± 0.017 | 0.7205 ± 0.0016 | 0.6615 ± 0.0042 | 0.591 ± 0.019 | 0.537 ± 0.033 | 0.504 ± 0.034 | 0.471 ± 0.033 | 0.445 ± 0.029 | 0.433 ± 0.028
100 µM, coculture fibroblast: C12385 | 0.732 ± 0.036 | 0.593 ± 0.049 | 0.528 ± 0.064 | 0.48 ± 0.07 | 0.427 ± 0.075 | 0.412 ± 0.072 | 0.396 ± 0.065 | 0.373 ± 0.07 | 0.369 ± 0.077
100 µM, coculture fibroblast: H6013 | 0.66 ± 0.053 | 0.524 ± 0.075 | 0.473 ± 0.075 | 0.433 ± 0.07 | 0.4 ± 0.048 | 0.401 ± 0.039 | 0.374 ± 0.033 | 0.361 ± 0.026 | 0.293 ± 0.022
100 µM, coculture fibroblast: H6019 | 0.696 ± 0.018 | 0.559 ± 0.072 | 0.49 ± 0.091 | 0.41 ± 0.1 | 0.363 ± 0.11 | 0.341 ± 0.11 | 0.308 ± 0.1 | 0.279 ± 0.094 | 0.264 ± 0.086
100 µM, coculture fibroblast: H6076 | 0.795 ± 0.02 | 0.725 ± 0.024 | 0.636 ± 0.022 | 0.588 ± 0.017 | 0.512 ± 0.011 | 0.489 ± 0.021 | 0.454 ± 0.033 | 0.429 ± 0.029 | 0.431 ± 0.036
100 µM, coculture fibroblast: H6231 | 0.813 ± 0.022 | 0.717 ± 0.056 | 0.634 ± 0.085 | 0.629 ± 0.064 | 0.542 ± 0.085 | 0.511 ± 0.064 | 0.479 ± 0.044 | 0.455 ± 0.053 | 0.457 ± 0.046
100 µM, coculture fibroblast: HADF | 0.661 ± 0.02 | 0.5545 ± 0.001 | 0.51 ± 0.011 | 0.468 ± 0.0049 | 0.422 ± 0.0045 | 0.418 ± 0.013 | 0.386 ± 0.011 | 0.375 ± 0.0092 | 0.309 ± 0.0098
100 µM, coculture fibroblast: HCFa | 0.689 ± 0.024 | 0.542 ± 0.0059 | 0.48 ± 0.017 | 0.439 ± 0.029 | 0.399 ± 0.019 | 0.383 ± 0.011 | 0.36 ± 0.0036 | 0.345 ± 0.0021 | 0.286 ± 0.0053
100 µM, coculture fibroblast: HCPF | 0.793 ± 0.0086 | 0.788 ± 0.013 | 0.701 ± 0.0043 | 0.614 ± 0.029 | 0.61 ± 0.022 | 0.581 ± 0.035 | 0.556 ± 0.044 | 0.531 ± 0.055 | 0.521 ± 0.066
100 µM, coculture fibroblast: HHSteC | 0.775 ± 0.092 | 0.656 ± 0.098 | 0.621 ± 0.13 | 0.57 ± 0.14 | 0.529 ± 0.17 | 0.521 ± 0.18 | 0.483 ± 0.18 | 0.471 ± 0.18 | 0.402 ± 0.17
100 µM, coculture fibroblast: HMF | 0.773 ± 0.005 | 0.704 ± 0.018 | 0.5901 ± 0.0056 | 0.533 ± 0.013 | 0.472 ± 0.018 | 0.448 ± 0.025 | 0.42 ± 0.026 | 0.402 ± 0.038 | 0.393 ± 0.033
100 µM, coculture fibroblast: HPFa | 0.781 ± 0.0083 | 0.6206 ± 0.0028 | 0.5679 ± 0.0055 | 0.502 ± 0.0091 | 0.46244 ± 8.7e-05 | 0.453 ± 0.007 | 0.413 ± 0.008 | 0.4 ± 0.0087 | 0.3831 ± 0.0024
100 µM, coculture fibroblast: HUF | 0.759 ± 0.061 | 0.56 ± 0.14 | 0.458 ± 0.19 | 0.372 ± 0.18 | 0.319 ± 0.18 | 0.308 ± 0.19 | 0.275 ± 0.18 | 0.258 ± 0.18 | 0.247 ± 0.19
100 µM, coculture fibroblast: Hs5 | 0.831 ± 0.024 | 0.774 ± 0.032 | 0.717 ± 0.043 | 0.705 ± 0.041 | 0.614 ± 0.047 | 0.585 ± 0.051 | 0.554 ± 0.048 | 0.532 ± 0.062 | 0.539 ± 0.068
100 µM, coculture fibroblast: Hs27A | 0.641 ± 0.0071 | 0.545 ± 0.018 | 0.531 ± 0.02 | 0.542 ± 0.016 | 0.48 ± 0.032 | 0.504 ± 0.039 | 0.482 ± 0.032 | 0.473 ± 0.038 | 0.39 ± 0.031
100 µM, coculture fibroblast: Hs343T | 0.7891 ± 0.0013 | 0.703 ± 0.016 | 0.622 ± 0.025 | 0.586 ± 0.025 | 0.502 ± 0.017 | 0.477 ± 0.023 | 0.44 ± 0.026 | 0.424 ± 0.025 | 0.415 ± 0.032
100 µM, coculture fibroblast: WS1 | 0.702 ± 0.017 | 0.53787 ± 0.00035 | 0.471 ± 0.013 | 0.393 ± 0.014 | 0.343 ± 0.011 | 0.317 ± 0.0054 | 0.2886 ± 0.00032 | 0.268 ± 0.0056 | 0.262 ± 0.0053

Source: the supplement of paper PMC6078165
